Among the data in publication PMC3275588, “Cellular Growth Kinetics Distinguish a Cyclophilin Inhibitor from an HSP90 Inhibitor as a Selective Inhibitor of Hepatitis C Virus” (PLoS ONE, 2012) are EC50 values, retold here.

This assay relates to luciferase-encoding HCV replicon. In words: HCV replicon Renilla luciferase antiviral assay. The class given is cell-based. The settings on record: Hepatitis C virus, 72 h. The procedure: Using a stable cell line replicating a luciferase-encoding HCV replicon, we measured viral replication levels (Renilla luciferase) across a range of drug concentrations (2 nM to 44.4 µM) three days post drug addition. In parallel, we measured intracellular esterase activity as a surrogate for cell viability using the Calcein AM reagent.
Renilla luciferase replicon cell assays were performed as previously described. Calcein AM (Anaspec, Fremont, CA) and CellTiter-Glo (Promega, Madison, WI) readouts were performed as instructed by the manufacturer.
(In general: Replicon systems follow genome replication, usually without infectious particles.)

Usually EC50 stands for the concentration at which the effect is half-maximal. A high value points to lower potency in that assay.

`COc1cc2c(c(OC)c1OC)-c1ccc(OC)c(=O)cc1[C@@H](NC(C)=O)CC2` [Colchicine, colchicine] returned an EC50 of 9 nM.
